Source: patent publication US20120315310A1, “BONE TISSUE IMPLANT COMPRISING LITHIUM IONS” (Astra Tech AB, priority 2007, published 2012)
At least one compound was matched to its structure with a doubt left.

What was measured:
[1] = tested on: alkaline phosphatase (ALP); experiment: Production of alkaline phosphatase (ALP) by MG-63 cells with lithium; format: cell-based, human
[2] = tested on: alkaline phosphatase (ALP); experiment: ALP production on reference surface 1; format: cell-based, human; conditions: 1 mM lithium, 7 days of cell culture, vs unstimulated reference surface 1

Question: `[Li]` [lithium, LiNO3] was tested. Which “production of ALP after 7 days” value ([1]; 7 days, compared to the control) did it give?
Answer: small increase

Question: And the “ALP levels after 14 days” value ([1]; 14 days, 1 mM, 3 mM, 5 mM and 10 mM lithium)?
Answer: increased ALP levels

Question: And the “production of ALP, initial” value ([1]; all lithium concentrations, compared to control (unstimulated cells))?
Answer: initially slow

Question: And the “ALP production on reference surface 1” value [2]?
Answer: increased
